Read-outs that look alike come from different tables or passages of the source.

What all share (type): cell-based
For data set [1], the system named is MDA-MB-231 cells. Nature of the data set: MTT cell viability, MDA-MB-231. The note with it: Homo sapiens, MDA-MB-231, 72 h, read-out: Cytotoxic Activity IC50 MDA-MB-231. The method, then:
(§1) The BC cell lines MCF-7 and MDA-MB-231 were cultured in high-glucose DMEM medium with phenol red, supplemented with 7% and 10% fetal bovine serum (Gibco, Waltham, MA, USA), respectively, 1% Penicillin/Streptomycin (10,000 U/mL, Gibco, Waltham, MA, USA), and 1% non-essential amino acids (Gibco, Waltham, MA, USA). Cell cultures were maintained in a temperature-controlled incubator at 37 °C and 5% CO2 atmosphere. For the 72 h assays with MDA-MB-231, 1.8 x 10³ cells/well were seeded in 100 µL of medium.
(§2) The 3-(4,5-dimethylthiazol-2-yl)-2,5-diphenyl tetrazolium bromide assay was used to evaluate the effect of the designed compounds on cell viability. These compounds were initially dissolved in DMSO (dimethyl sulfoxide) as stock solutions at 150 mM. Cells were seeded in 96-well plates (NEST Biotechnology Co., Wuxi, China) at different densities, depending on the cell line used and the incubation time with the treatments, and left in 100 µL of the corresponding culture medium for 24 h to allow for adhesion. […] The optical density of the wells was measured at 550 nm using an ELISA reader (MultiSkan, Thermo Scientific, Waltham, MA, USA). Finally, cell viability was expressed as a percentage relative to the negative control (untreated and 0.46% DMSO).
(§3) Cytotoxicity data were analyzed using one-way ANOVA to evaluate differences between the treated groups and the negative control (DMSO). […]

Data set [2] relates to MCF-7 cells. The data set is described as follows: MTT cell viability, MCF-7. Particulars: read-out: Cytotoxic Activity IC50 MCF-7. Here is the method: as §1, §2, §3
The nature of data set [3]: MTT cell viability, non-tumorigenic MCF-10A. Particulars: human, MCF-10A non-cancerous mammary epithelial cells, non-tumorigenic breast cells, read-out: Cytotoxic Activity IC50 MCF-10A.
Excerpt: (§4) Since the use of these compounds is promising for solid tumors and non-malignant diseases, structural modifications that improve the pharmacokinetic profile, widen the therapeutic window, and reduce the toxic risk potential are desirable.
(§5) For the culture of normal breast epithelial cells MCF-10A, DMEM-F12 medium without phenol red was used, supplemented with 5% fetal bovine serum (Gibco, Waltham, MA, USA), 1% Penicillin/Streptomycin (10,000 U/mL, Gibco, Waltham, MA, USA), 1% non-essential amino acids (Gibco, Waltham, MA, USA), 0.33% hydrocortisone, 0.2% insulin (100 U/mL), and 0.002% EGF (1 µg/µL). For the assays with MCF-10A cells, 2.5 × 10^3 cells/well were seeded in 100 µL of medium.
(§6) The 3-(4,5-dimethylthiazol-2-yl)-2,5-diphenyl tetrazolium bromide assay was used to evaluate the effect of the designed compounds on cell viability. These compounds were initially dissolved in DMSO (dimethyl sulfoxide) as stock solutions at 150 mM. […] The optical density of the wells was measured at 550 nm using an ELISA reader (MultiSkan, Thermo Scientific, Waltham, MA, USA). Finally, cell viability was expressed as a percentage relative to the negative control (untreated and 0.46% DMSO).
as §3

For data set [4], the system named is MCF-10A cells. The data set is described as follows: MTT cell viability, non-tumorigenic MCF-10A. The note with it: 72 h, non-tumorigenic breast cells, read-out: Cytotoxic Activity IC50 MCF-10A.
Excerpt: as §4, §5, §6, §3

For orientation: IC50 means the point on the concentration scale where inhibition reaches its midpoint. As to `O=C(CCCCCCC(=O)Nc1ccccc1)NO` [SAHA, suberoylanilide hydroxamic acid, reference compound], the IC50 was found to be 3.5 ± 0.56 µM in data set [1]; 4.23 ± 1.59 µM in data set [2] (72 h); 4.2 µM in data set [2] (Homo sapiens, MCF7, 72 h); 3.02 ± 0.32 µM in data set [4]. Besides, the half-inhibitory concentration (IC50) at 72 h in data set [3] came to 3 µM.

Values taken from paper PMC11944851, “Computationally Guided Design, Synthesis, and Evaluation of Novel Non-Hydroxamic Histone Deacetylase Inhibitors, Based on N-Trifluoroacetamide as a Zinc-Binding Group, Against Breast Cancer” (Pharmaceuticals, 2025).
